PubChem BioAssay AID652259, Drosophila RNAi Screening Center, 2013

Assay: 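Knock-downs that push a Wingless-driven reporter up or down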 (primary screen)
Cells: Drosophila clone 8 imaginal disc epithelial cells
Reagents: long dsRNA against Drosophila genes
Challenge: pathway stimulated by co-transfected Wingless expression plasmid
Measured: 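Dual luciferase reads per well after Wingless plasmid stimulation: reporter firefly light and Renilla control light; activity is firefly divided by Renilla, a ratio not deposited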
Direction: firefly reporter light: higher = more Wg reporter light, before normalisation; Renilla control light: higher = more transfected or surviving cells
Active means: 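Strong candidates differ from their plate mean by at least two out of four per-plate statistical tests; weak candidates meet just one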
Calls: active = candidate regulator (raises or lowers reporter); inactive = not a candidate
The deposit covers about 22,000 reagents; this is an unselected part of those with a known target gene and a result. In the full data, 233 (1.1%) are marked active. 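Light values are raw, unnormalised plate reads; the ratio scores behind the reporter calls were not deposited.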 A plus sign joins genes that one reagent is predicted to hit. Not given: the amount of reagent, the time to read-out, the dose of the treatment.

no.	Gene	dsRNA	reporter change call, replicate 1	firefly reporter light, replicate 1	firefly reporter light, replicate 2	Renilla control light, replicate 1	Renilla control light, replicate 2	activity call
1	CG3492	DRSC04373		12023		2971		inactive
2	MFS18	DRSC00452		14324		5536		inactive
3	CG5783	DRSC02894		3186	6521	1034	2157	inactive
4	CG12546 + CG14452	DRSC11709		18144		4004		inactive
5	Cp15	DRSC11118		1244	8180	1130	3264	inactive
6	CG1677	DRSC18116		27767		10780		inactive
7	CG14647	DRSC12233		10660		4480		inactive
8	CG14647	DRSC22497		4.61e5	3.74e5	2.06e5	104	inactive
9	nudC	DRSC11096		7621		3234		inactive
10	nudC	DRSC11097		6706		3149		inactive
11	BubR1	DRSC04838		3014	7324	762	2235	inactive
12	DIP-kappa	DRSC01336		23523		7123		inactive
13	DIP-kappa	DRSC01337		21456		7920		inactive
14	CG4627	DRSC06873		4771		1868		inactive
15	Ir94f	DRSC13621		2356		1258		inactive
16	Acp53C14c	DRSC05626		17984		12156		inactive
17	HisRS	DRSC19986		23803		8139		inactive
18	Tep1	DRSC03450		1840	3585	820	2104	inactive
19	RpS7	DRSC15394		4874		2071		inactive
20	defl	DRSC10300	Wg reporter activity lowered	2322		1698		inactive
21	tobi	DRSC14435		15984		14977		inactive
22	CG42541	DRSC17973		20352		7218		inactive
23	CG42541	DRSC18119		8909		1764		inactive
24	CG42541	DRSC18120		16048		8044		inactive
25	CG13901	DRSC08371		4730		2074		inactive
26	CG42808	DRSC06370		9777		4501		inactive
27	CG11437	DRSC11659		22934		7540		inactive
28	CG11113	DRSC06039		2584	6692	608	2418	inactive
29	CG13995	DRSC00907		25505		11792		inactive
30	CG13995	DRSC02327		5160	7632	976	2785	inactive
31	CG13995	DRSC22767		6.60e5	8.52e5	2.75e5	3.62e5	inactive
32	eIF2Bdelta	DRSC04058		12998		4192		inactive
33	CR34254	DRSC09562		2793		1266		inactive
34	CG7227	DRSC03032		9892		3753		inactive
35	qtc	DRSC02364		10285		4294		inactive
36	qtc	DRSC02365		2260	5669	581	1922	inactive
37	Gfat1	DRSC21219		22157		9104		inactive
38	CG6337	DRSC06977		10123		3843		inactive
39	CG6337	DRSC21870		4.63e5	4.23e5	2.32e5	2.35e5	inactive
40	ash2	DRSC16902		2169	6611	983	1700	inactive
41	CG32686	DRSC17645		6331		1324		inactive
42	Sardh	DRSC06981		10272		4163		inactive
43	ppk13	DRSC02382		2663	5811	688	2301	inactive
44	Tcs4	DRSC19587		3701	10592	1387	2772	inactive
45	CG6420	DRSC16035		5460		2550		inactive
46	CG17564	DRSC02626		4922	18956	960	3476	inactive
47	REG	DRSC20273		13382		7216		inactive
48	Ahcy	DRSC19329		1338	6742	600	1817	inactive
49	Pbp95	DRSC15448		10358		3083		inactive

Targets above whose target name starts with N or n (2):
Gene	dsRNA	reporter change call, replicate 1	firefly reporter light, replicate 1	firefly reporter light, replicate 2	Renilla control light, replicate 1	Renilla control light, replicate 2	activity call
nudC	DRSC11096		7621		3234		inactive
nudC	DRSC11097		6706		3149		inactive
